# Test results as given in the supplement of paper PMC5355238.
# Structures can show the parent of a compound that is named as a salt. ± gives the standard deviation of the averaged measurements. Some of the results follow. Single values are uncertain, as repeats are few or missing.
# Tested on: Reh
# Test: S-phase gammaH2AX median, Z-score vs plate median (drug alone); higher = more S-phase DNA damage
# Details: MK1775 concentration 0 nM; 10 µM; 4 h
row,Structure (SMILES),S-phase gammaH2AX median (Z-score)
1,N=C(NCCC[C@H](N)C(=O)O)N[N+](=O)[O-] [NG-Nitro-L-arginine],0.0473
2,CCCN(CCC)C1Cc2cc(OC)c(OC)cc2C1,0.407
3,O=c1c2ccccc2[se]n1-c1ccccc1 [Ebselen],0.0598
4,NCC#Cc1ccccc1 [3-Phenylpropargylamine hydrochloride],0
5,COC(=O)N1CCN(C(=O)Cc2ccc(Cl)c(Cl)c2)C(CN2CCCC2)C1 (configuration not stated),0.265
6,NCC(O)c1ccc(O)cc1 (configuration not stated) [(?)-Octopamine hydrochloride],0.187
7,CC(C)NC(C)Cc1ccc(I)cc1 (configuration not stated) [Iofetamine hydrochloride],0.0252
8,CN1CCc2cccc(Cl)c2CC1,0.147
9,COC(=O)[C@@H](N)CCCNC(=N)N[N+](=O)[O-] [NG-Nitro-L-arginine methyl ester hydrochloride],-0.0166
10,NC(CCCCCP(=O)(O)O)C(=O)O (configuration not stated) [(?)-2-Amino-7-phosphonoheptanoic acid],0.124
11,S=C=Nc1cccc(C2(N3CCCCC3)CCCCC2)c1 [Metaphit methanesulfonate],0
12,CN1CCC23CCCCC2C1Cc1ccc(O)cc13 [Dextrorphan D-tartrate],-0.132
13,CC(=O)O[C@H]1C[C@@H]2CC[C@@H]3[C@H](CC[C@@]4(C)[C@H]3C[C@H]([N+]3(C)CCCCC3)[C@@H]4OC(C)=O)[C@@]2(C)C[C@@H]1[N+]1(C)CCCCC1 [Pancuronium bromide],-0.591
14,CP(=O)(O)C1=CCNCC1,0.0601
15,NC(=O)c1cc(N2CC2)c([N+](=O)[O-])cc1[N+](=O)[O-],0.0155
16,Cn1cc(C2=C(c3cn(C4CCN(Cc5ccccn5)CC4)c4ccccc34)C(=O)NC2=O)c2ccccc21,0.128
17,C=CCN1CC[C@]23c4c5ccc(O)c4O[C@H]2C(=O)CC[C@@]3(O)[C@H]1C5 [Naloxone hydrochloride],0.0922
18,CC[C@@H](C(=O)[C@@H](C)[C@@H](O)[C@H](C)[C@@H]1O[C@@H]([C@@H](CC)C(=O)O)CC[C@@H]1C)[C@H]1O[C@]2(C=C[C@@H](O)[C@]3(CC[C@@](C)([C@H]4CC[C@](O)(CC)[C@H](C)O4)O3)O2)[C@H](C)C[C@@H]1C [Salinomycin (Procoxacin)],0.0329
19,"COc1ccc2[nH]c3c(c2c1)CCNC3 [6-Methoxy-1,2,3,4-tetrahydro-9H-pyrido[3,4b] indole]",0.033
20,NC(=O)CI [Iodoacetamide],0.142
21,CN1CC[C@]2(CCN3CCc4c(oc5ccccc45)[C@@H]3C2)N(C)C1=O,0.156
22,N#CC(C#N)=Cc1ccc(O)c(O)c1 [Tyrphostin 23],-0.1
23,CN1[C@@H]2C[C@@H](OC(=O)[C@H](CO)c3ccccc3)C[C@H]1[C@@H]1O[C@@H]12 [(-)-Scopolamine hydrobromide],-0.174
24,COc1cc(CC(C)N)c(OC)cc1I (configuration not stated) [(?)-DOI hydrochloride],-0.0157

# By substructure, the compounds so far containing an aryl methoxy group
row,Structure (SMILES),S-phase gammaH2AX median (Z-score)
2,CCCN(CCC)C1Cc2cc(OC)c(OC)cc2C1,0.407
19,"COc1ccc2[nH]c3c(c2c1)CCNC3 [6-Methoxy-1,2,3,4-tetrahydro-9H-pyrido[3,4b] indole]",0.033
24,COc1cc(CC(C)N)c(OC)cc1I (configuration not stated) [(?)-DOI hydrochloride],-0.0157

# Single values from the results shown.
# `CC[C@@H](C(=O)[C@@H](C)[C@@H](O)[C@H](C)[C@@H]1O[C@@H]([C@@H](CC)C(=O)O)CC[C@@H]1C)[C@H]1O[C@]2(C=C[C@@H](O)[C@]3(CC[C@@](C)([C@H]4CC[C@](O)(CC)[C@H](C)O4)O3)O2)[C@H](C)C[C@@H]1C` [Salinomycin (Procoxacin)] | S-phase gammaH2AX median (Z-score): 0.0329
# `NC(=O)CI` [Iodoacetamide] | S-phase gammaH2AX median (Z-score): 0.142
# `COc1cc(CC(C)N)c(OC)cc1I` (configuration not stated) [(?)-DOI hydrochloride] | S-phase gammaH2AX median (Z-score): -0.0157

# (next part)

row,Structure (SMILES),S-phase gammaH2AX median (Z-score)
1,NNCc1cccc(O)c1 [3-Hydroxybenzylhydrazine dihydrochloride],-0.0283
2,CCCN(CCC)[C@@H]1CCc2c(F)ccc(O)c2C1 [R(+)-UH-301 hydrochloride],0.0868
3,N[C@@H]1C[C@H]1c1ccccc1 [Tranylcypromine hydrochloride],0.196
4,O=C(O)[C@@H]1[C@H](C(=O)O)[C@H]2CC[C@@H]1O2 [Endothall],0.0472
5,O=C1CC[C@@]2(O)[C@H]3Cc4ccc(O)c5c4[C@@]2(CCN3CC2CC2)[C@H]1O5 [Naltrexone hydrochloride],-0.0426
6,"CN1CCc2cc(O)cc3c2[C@H]1Cc1ccc(O)c(O)c1-3 [R(-)-2,10,11-Trihydroxyaporphine hybrobromide]",0.0945
7,NC(CP(=O)(O)O)C(=O)O (configuration not stated) [(?)-2-Amino-3-phosphonopropionic acid],-0.0272
8,Oc1ccc2c3c1O[C@H]1c4[nH]c5ccccc5c4C[C@@]4(O)[C@@H](C2)N(CC2CC2)CC[C@]314 [Naltrindole hydrochloride],-0.173
9,CCCN1CCC[C@@H](c2cccc(C#N)c2)C1 [S(-)-DS 121 hydrochloride],-0.101
10,CC(NC(C)(C)C)C(=O)c1cccc(Cl)c1 (configuration not stated) [Bupropion hydrochloride],0.0738
11,NCC(CC(=O)O)c1ccc(Cl)cc1 (configuration not stated) [(?)-Baclofen],0.0524
12,"CN1CC[C@@]2(C)c3cc(O)ccc3N(C)C12 (single isomer, unassigned; (-)) [(-)-Eseroline fumarate]",-0.0661
13,CC(C)[C@]12O[C@H]1[C@@H]1O[C@]13[C@]1(O[C@H]1C[C@H]1C4=C(CC[C@@]13C)C(=O)OC4)[C@@H]2O [Triptolide],0.0909
14,CC(=O)[C@H]1CC[C@H]2[C@@H]3CC[C@H]4C[C@H](O)CC[C@]4(C)[C@H]3CC[C@]12C [5alpha-Pregnan-3alpha-ol-20-one],0.237
15,CCN1C[C@]2(C)CC[C@H](O)[C@]34C1[C@@H](C[C@H]23)[C@@]1(O)C[C@H](OC)[C@H]2C[C@@H]4[C@@H]1[C@H]2O [Karakoline],-0.022
16,CC[C@@H](CO)NC(=O)[C@@H]1C=C2c3cccc4[nH]cc(c34)C[C@H]2N(C)C1 [Methylergonovine maleate],-0.111
17,CCC1(C2=NCCN2)Cc2ccccc2O1 (configuration not stated) [Efaroxan hydrochloride],0.0882
18,CCOC(=O)c1ncn2c1[C@@H]1CCCN1C(=O)c1cc(OC)ccc1-2,0.0639
19,NC(N)=Nc1ccc2[nH]c3c(c2c1)C[C@@]1(O)[C@H]2Cc4ccc(O)c5c4[C@@]1(CCN2CC1CC1)[C@H]3O5 [Guanidinyl-naltrindole di-trifluoroacetate],-0.154
20,"CN1[C@@H]2CC[C@H]1C[C@@H](OC(=O)c1cc(Cl)cc(Cl)c1)C2 [3-Tropanyl-3,5-dichlorobenzoate]",-0.214
21,CC(C)(C)c1cc(C=C(C#N)C#N)cc(C(C)(C)C)c1O [Tyrphostin A9],-0.147
22,O=C(O)c1nn(Cc2ccc(Cl)cc2Cl)c2ccccc12 [Lonidamine],0.102 ± 0.1
23,"O=[N+]([O-])c1ccc(O[C@@H]2O[C@H](CO)[C@@H](O)[C@H](O)[C@H]2F)c([N+](=O)[O-])c1 [2,4-Dinitrophenyl 2-fluoro-2-deoxy-beta-D-glucopyranoside]",0.0945
24,O=c1[nH]oc2c1CCNC2 [THIP hydrochloride],-0.0133

row,Structure (SMILES),S-phase gammaH2AX median (Z-score)
1,NC(Cc1cc(O)c(O)cc1O)C(=O)O (racemic) [6-Hydroxy-DL-DOPA],-0.0661
2,COc1cc(C(O)CN)ccc1O (configuration not stated) [(?)-Normetanephrine hydrochloride],-0.128
3,"C[N+]1(C)[C@@H]2CC(OC(=O)[C@H](CO)c3ccccc3)C[C@H]1[C@@H]1O[C@@H]12 (single isomer, unassigned; (-)) [(-)-Scopolamine methyl nitrate]",0.0734
4,NC(CCP(=O)(O)O)C(=O)O (configuration not stated) [(?)-2-Amino-4-phosphonobutyric acid],-0.0408
5,"C[N+]1(C)CCc2cc3c(cc2[C@H]1[C@@H]1OC(=O)c2c1ccc1c2OCO1)OCO3 [(-)-Bicuculline methbromide, 1(S), 9(R)]",0.142
6,COc1ccc2c(c1O)-c1cccc3c1[C@@H](C2)N(C)CC3 [R(-)-Apocodeine hydrochloride],-0.0819
7,NCC1(CC(=O)O)CCCCC1 [Gabapentin],0.0819
8,CC(C)Oc1cccnc1N(C)C1CCN(Cc2ccccc2)CC1,-0.187
9,C[C@@H]1O[C@H](C[N+](C)(C)C)CS1 [OXA-22 iodide],-0.0641
10,O=C(CCCN1CCC2(CC1)C(=O)NCN2c1ccccc1)c1ccc(F)cc1 [Spiperone hydrochloride],-0.394
11,CCCCCCC(C)(C)c1ccc([C@@H]2C[C@H](O)CC[C@H]2CCCO)c(O)c1,0.00777
12,CN1C2CCC1CC(OC(c1ccccc1)c1ccc(Cl)cc1)C2 (stereo not drawn) [4'-Chloro-3-alpha-(diphenylmethoxy)tropane hydrochloride],-0.0447
13,CCCn1c(=O)c2[nH]c(C3CCCC3)nc2n(CCCOC(=O)c2ccc(S(=O)(=O)F)cc2)c1=O,-0.0441
14,CC(O)(CS(=O)(=O)c1ccc(F)cc1)C(=O)Nc1ccc(C#N)c(C(F)(F)F)c1 (configuration not stated) [Bicalutamide (Casodex)],-0.0375
15,CC(C)c1cccc(C(C)C)c1O [Propofol],0.0126
16,Cc1nc(-c2ccc(-c3ccc(C(=O)N4CCc5cc6c(cc54)C4(CCN(C)CC4)CO6)cc3)c(C)c2)no1,-0.834
17,CCCN1CCC[C@@H]2Cc3n[nH]cc3C[C@H]21 [(-)-Quinpirole hydrochloride],-0.0307
18,CN1C[C@H](CNC(=O)OCc2ccccc2)C[C@@H]2c3cccc4c3c(cn4C)C[C@H]21 [Metergoline],-0.0899
19,N#CC(C#N)=Cc1cc(O)c(O)c(O)c1 [Tyrphostin 25],-0.214
20,OCc1cnc[nH]1 [4-Imidazolemethanol hydrochloride],0.0409
21,O=C(O)CC[N+](=O)[O-] [3-Nitropropionic acid],-0.0686
22,Oc1ccc2c3c1O[C@H]1[C@@H](O)CC[C@@]4(O)[C@@H](C2)N(CC2CCC2)CC[C@]314 [Nalbuphine hydrochloride],-0.0993
23,"CC(N)C(O)c1ccc(O)c(O)c1 (single isomer, unassigned; (-)) [(-)-alpha-Methylnorepinephrine]",-0.0157
24,CC(C)[C@@]1(NC(=O)[C@@H]2C=C3c4cccc5[nH]cc(c45)C[C@H]3N(C)C2)O[C@@]2(O)[C@@H]3CCCN3C(=O)[C@H](Cc3ccccc3)N2C1=O [Ergocristine],0.161
